Publication PMC10353892

T1: GFP-Ote^WT (transgenic embryos) (Drosophila) (UniProt P20240)
T1 sequence: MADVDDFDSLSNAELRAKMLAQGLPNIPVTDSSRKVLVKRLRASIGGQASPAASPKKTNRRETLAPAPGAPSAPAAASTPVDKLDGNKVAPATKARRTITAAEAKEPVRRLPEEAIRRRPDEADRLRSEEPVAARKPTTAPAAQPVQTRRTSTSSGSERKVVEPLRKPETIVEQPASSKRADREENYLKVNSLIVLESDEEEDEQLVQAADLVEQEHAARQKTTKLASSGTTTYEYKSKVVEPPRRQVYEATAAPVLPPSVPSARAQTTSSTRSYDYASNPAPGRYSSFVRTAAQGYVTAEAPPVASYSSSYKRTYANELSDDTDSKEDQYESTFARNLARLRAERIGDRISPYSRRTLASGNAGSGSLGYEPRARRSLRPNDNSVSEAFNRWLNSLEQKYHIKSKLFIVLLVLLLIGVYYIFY


Target: T1, GFP-Ote^WT (transgenic embryos) (Drosophila)
Assay: affinity purification with mass spectrometry; GFP-Trap agarose on lysates of 0-2 h embryos expressing the GFP fusion, GFP alone as control; 20 mM Tris pH 7.5, 150 mM NaCl, 2 mM MgCl2, 0.5% Triton X-100, 4°C; three experiments

binding | Binder
binds | Zw10 (protein, UniProt Q9W4X9 1-721) MEEEAPRFNVLEEAFNGNGNGCANVEATQSAILKVLTRVNRFQMRVRKHIEDNYTEFLPNNTSPDIFLEESGSLNREIHDMLENLGSEGLDALDEANVKMAGNGRQLREILLGLGVSEHVLRIDELFQCVEEAKATKDYLVLLDLVGRLRAFIYGDDSVDGDAQVATPEVRRIFKALECYETIKVKYHVQAYMLQQSLQERFDRLVQLQCKSFPTSRCVTLQVSRDQTQLQDIVQALFQEPYNPARLCEFLLDNCIEPVIMRPVMADYSEEADGGTYVRLSLSYATKEPSSAHVRPNYKQVLENLRLLLHTLAGINCSVSRDQHVFGIIGDHVKDKMLKLLVDECLIPAVPESTEEYQTSTLCEDVAQLEQLLVDSFIINPEQDRALGQFVEKYETYYRNRMYRRVLETAREIIQRDLQDMVLVAPNNHSAEVANDPFLFPRCMISKSAQDFVKLMDRILRQPTDKLGDQEADPIAGVISIMLHTYINEVPKVHRKLLESIPQQAVLFHNNCMFFTHWVAQHANKGIESLAALAKTLQATGQQHFRVQVDYQSSILMGIMQEFEFESTHTLGSGPLKLVRQCLRQLELLKNVWANVLPETVYNATFCELINTFVAELIRRVFTLRDISAQMACELSDLIDVVLQRAPTLFREPNEVVQVLSWLKLQQLKAMLNASLMEITELWGDGVGPLTASYKSDEIKHLIRALFQDTDWRAKAITQIV
binds | Zwlich (protein, UniProt Q9VA00 1-641) MSASANLANVYAELMRRCGESYTITYGAPPTYLVSMVGAAEAGKKIVLVFKEDRNGAVARLRTTPTRAAPKKEGSADLDLTGSPLKDDCLVDAIADLSIDLQLDHSNPWKLEEEYQRGIPVDKARSIVCSEFLQLAEGLGSVWFLCDGSDLGQTQLLQYEFNPTHFSRGILSYQGVRPAYLVTSQALVRHHGKTPDETLIENSYQVNPHMRLRCSWTSSAALPLLVNLNDCDVALNHTFRVGDCGPLTQDFMNQLRILVYIREDIVSYHTDVKQGVSRDPTYRCGSGIDMDELRESINQTMTDVSGLIGRYSISNAEFDIEDVVQRAKVRQLTDLTDKLWELLKCCHSYKDLKIAFSMLFQCAARCNIVNTPTNKNRLAKIITELANRRLAMPCLSGAEPLELLLEIGLEKLYKDYEFIYTESKMCSTNLLKDDSSGASMDDGSPQNLPQLRKSLHNAVRGDPTPGAGMRKTLLHHHGAVNSRSTKYAGSDDDAGFKNSHFDEHESTERISKLFQIHCTLEHLLMMHIHLNLANVYNDVCSELLKKPPKLVESIDDQLSDVMDIRLSAHYVRDHLDGKDPYSRHITMRSHNKFRELKTTFYFNSENICPPNLAQCFQCDDKEMVKERTYHSWIYHKIRSLK
binds | MAN1 (protein, UniProt Q7JRE4 1-650) MSTESLNSLSDKELHRKLIQSGFPSTPVTETTRAVLIEKLRKHTRADKLKKRSNKYVLYSKEQQESPPFPQYHQYHAPQPPQNYANGLDNNNDLDQTGGSSAYNRSLDESDSSPLQLSASKMYAPPPVVASNYDGDCSPHSLGLNGKYLQPCSMPYAIDTSNNYGKPSGKAKLSDGGVVNRLLSFRDTTIQRKFNYPTGQASRIPLRKERLTRFALSDLKSFIRNPDIRPYVIPRVLISLFLIFLTIITVLYVGKRFEQSPIDKAALKYTLCNPNDMQMISEKVNCIEKDSLRGALDMSEELFRHLNERARLHHCKDANLSPALEIGEFVREMVSNPKTHRGNLHSNLMAAKYLITENPQWSIQVVDSTKHLGQTSHFELSEPNLPLKCIVLKKVTRFFTVIGALLLIVAGFLIVYVAVVIYRVKQKEALLAVDQFQKDIINELIYLSSQSESPEVVINQLQEKFLPAKKRSKLLSSWNKALKQLEKNDSRVLFGMVNRDGKAMRTIAWNRNVDKKDVGLVKKWQSPAFDNSNKIANPPTPCLKIRHMFDSSEVDQANLKQSIVESIIEKVGTRCKICDVQLDVQSCCVYIRCASEEDAGTIHKEINGWWFDKRLISIKFLRLERYLSRFPKPSAEPLYFHTNEAANTHS

Results are given in words; binding and its absence hold for the method and conditions named. In cells and extracts the contact can be indirect. Here binding means that the protein was enriched with, or labelled near, the bait; the list need not be complete. Where a sequence is shown, tags or fusion partners need not be part of it.
